The target of this assay is myosin-Va (human (endogenous in RPE1)) (UniProt Q9Y4I1). The assay can be described thus: co-IP; RPE1 cells lysed in RIPA buffer (50 mM Tris-HCl pH 8.0, 150 mM NaCl, 1% NP-40, 0.5% sodium deoxycholate); lysates immunoprecipitated with EXOC6A or Myo-Va antibodies for 2 hr at 4°C, Protein G Sepharose overnight at 4°C, three washes with RIPA buffer, immunoblotting. A general note: Immunoblotting shows a protein as a band on a membrane.

Chains of the proteins cited; added tags and fusions are not shown.
UniProt Q9Y4I1: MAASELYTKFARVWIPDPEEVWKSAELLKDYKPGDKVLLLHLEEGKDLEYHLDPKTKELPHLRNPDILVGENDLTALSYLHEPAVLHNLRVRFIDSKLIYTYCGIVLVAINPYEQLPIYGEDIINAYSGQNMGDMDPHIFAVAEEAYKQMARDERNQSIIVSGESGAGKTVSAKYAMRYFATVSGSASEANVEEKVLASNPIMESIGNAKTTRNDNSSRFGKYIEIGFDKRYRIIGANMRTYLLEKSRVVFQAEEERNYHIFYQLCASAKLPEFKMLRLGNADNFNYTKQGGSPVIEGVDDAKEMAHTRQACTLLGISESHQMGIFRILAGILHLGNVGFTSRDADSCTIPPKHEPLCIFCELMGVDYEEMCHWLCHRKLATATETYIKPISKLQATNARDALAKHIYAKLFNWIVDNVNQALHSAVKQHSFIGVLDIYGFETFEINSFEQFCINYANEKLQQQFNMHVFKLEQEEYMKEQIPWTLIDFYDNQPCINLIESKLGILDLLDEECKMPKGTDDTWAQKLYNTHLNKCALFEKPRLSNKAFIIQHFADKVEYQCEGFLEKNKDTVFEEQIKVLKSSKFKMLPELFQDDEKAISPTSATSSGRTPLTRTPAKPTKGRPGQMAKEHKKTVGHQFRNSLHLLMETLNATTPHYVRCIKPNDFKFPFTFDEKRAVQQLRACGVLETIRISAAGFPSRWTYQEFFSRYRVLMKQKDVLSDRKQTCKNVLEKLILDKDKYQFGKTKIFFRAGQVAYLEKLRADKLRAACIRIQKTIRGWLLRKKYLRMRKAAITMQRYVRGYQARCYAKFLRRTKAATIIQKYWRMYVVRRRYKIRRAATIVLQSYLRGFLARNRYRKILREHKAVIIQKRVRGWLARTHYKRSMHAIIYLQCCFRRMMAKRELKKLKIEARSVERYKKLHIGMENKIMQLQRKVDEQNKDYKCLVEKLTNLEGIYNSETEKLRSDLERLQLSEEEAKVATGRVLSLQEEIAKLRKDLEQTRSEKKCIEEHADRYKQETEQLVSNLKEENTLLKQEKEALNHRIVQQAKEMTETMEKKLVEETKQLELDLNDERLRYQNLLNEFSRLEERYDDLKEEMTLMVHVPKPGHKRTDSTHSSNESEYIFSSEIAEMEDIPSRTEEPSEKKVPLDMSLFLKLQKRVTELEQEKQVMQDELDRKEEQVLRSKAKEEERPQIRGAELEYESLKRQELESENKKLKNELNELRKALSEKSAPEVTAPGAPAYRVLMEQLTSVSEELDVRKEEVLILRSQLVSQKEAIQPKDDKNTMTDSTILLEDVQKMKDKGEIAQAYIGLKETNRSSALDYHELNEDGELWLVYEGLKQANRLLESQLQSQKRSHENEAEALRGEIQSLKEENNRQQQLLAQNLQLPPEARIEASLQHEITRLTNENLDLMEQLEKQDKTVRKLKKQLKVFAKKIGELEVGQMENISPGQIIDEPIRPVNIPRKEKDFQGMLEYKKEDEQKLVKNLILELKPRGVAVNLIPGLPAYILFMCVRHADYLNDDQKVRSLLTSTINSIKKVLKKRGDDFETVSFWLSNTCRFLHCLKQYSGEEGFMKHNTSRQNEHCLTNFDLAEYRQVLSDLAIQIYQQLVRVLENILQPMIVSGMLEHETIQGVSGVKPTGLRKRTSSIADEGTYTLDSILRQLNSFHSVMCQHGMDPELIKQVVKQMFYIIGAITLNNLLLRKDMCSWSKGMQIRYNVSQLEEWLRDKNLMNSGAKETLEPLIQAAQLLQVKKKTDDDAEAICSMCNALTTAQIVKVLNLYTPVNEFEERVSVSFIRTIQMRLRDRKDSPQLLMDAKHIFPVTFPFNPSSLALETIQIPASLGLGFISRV
UniProt Q8TAG9: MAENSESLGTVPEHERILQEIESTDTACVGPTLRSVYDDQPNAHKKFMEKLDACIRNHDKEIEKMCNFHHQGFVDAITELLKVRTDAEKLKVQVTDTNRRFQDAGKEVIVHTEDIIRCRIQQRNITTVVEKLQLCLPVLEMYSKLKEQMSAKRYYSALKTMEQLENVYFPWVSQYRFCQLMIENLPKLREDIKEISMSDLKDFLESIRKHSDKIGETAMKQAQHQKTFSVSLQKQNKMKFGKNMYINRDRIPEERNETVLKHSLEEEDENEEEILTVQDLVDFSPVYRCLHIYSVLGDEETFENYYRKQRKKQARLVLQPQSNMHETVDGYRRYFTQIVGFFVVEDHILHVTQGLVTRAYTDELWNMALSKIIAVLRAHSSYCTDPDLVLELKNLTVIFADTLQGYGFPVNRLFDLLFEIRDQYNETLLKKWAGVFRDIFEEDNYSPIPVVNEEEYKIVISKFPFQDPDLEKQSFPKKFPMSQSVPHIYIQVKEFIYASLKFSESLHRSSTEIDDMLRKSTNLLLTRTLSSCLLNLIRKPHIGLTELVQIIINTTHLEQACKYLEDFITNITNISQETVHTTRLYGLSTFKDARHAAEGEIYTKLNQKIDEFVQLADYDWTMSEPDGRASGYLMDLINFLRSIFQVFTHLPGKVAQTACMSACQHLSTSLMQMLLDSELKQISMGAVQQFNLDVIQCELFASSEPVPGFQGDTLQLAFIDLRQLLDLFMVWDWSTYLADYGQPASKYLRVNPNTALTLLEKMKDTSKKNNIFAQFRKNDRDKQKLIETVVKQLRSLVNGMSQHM

Results are given in words; binding and its absence hold for the method and conditions named. Binding seen in cells or lysates may run through a third protein. Some binding calls cover weakened binding; strength is not graded here.

For the substance EXOC6A (from UniProt Q8TAG9 1-804), the binding entry is on record as “binds”.

The record behind these values is paper PMC13189621.
